## Library compounds against nucleic acid targets

Source: the ROBIN nucleic acid binder screens (doi:10.1002/anie.202211358).

Oligonucleotides screened, 5′ to 3′:
TPP: TPP riboswitch RNA three-way junction, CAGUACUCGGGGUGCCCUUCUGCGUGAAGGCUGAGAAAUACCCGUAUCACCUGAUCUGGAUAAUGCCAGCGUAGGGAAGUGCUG. About 160 hits among about 24,000 compounds.
PreQ1: PreQ1 riboswitch RNA pseudoknot, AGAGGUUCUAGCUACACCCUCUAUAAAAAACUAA. From B. subtilis. About 170 hits among about 24,000 compounds.
SAM-II: SAM-II riboswitch RNA pseudoknot, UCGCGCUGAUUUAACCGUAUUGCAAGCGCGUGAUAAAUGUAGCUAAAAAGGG. About 200 hits among about 21,000 compounds.

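Each compound is printed as two spots on a slide made to bind it covalently, so it has no test concentration; the read-out is fluorescence of the bound, labelled oligonucleotide. For the PreQ1, TPP and SAM-II riboswitches the laboratory earlier reported (doi:10.1038/s41467-019-09493-3) 1 µM RNA, 2 h, and a rule that included a mean Z-score above 3 (spot signal-to-noise against the whole library), a score well above that on a control array, and duplicate spots agreeing (coefficient of variation under 100). The data file gives only the calls; its cut-offs may differ, and compounds hitting several targets are kept. These are primary screening calls, not affinities; a compound without a hit may have attached poorly or may still bind in solution.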
A compound is marked hit if it was called a hit and none if it was screened but was not.
This is an unselected part of the compounds tested.
A dash means that no call is listed here.

structure | TPP | PreQ1 | SAM-II
Cc1ccc(N2C(=O)c3ccccc3C2Nc2cccc(Cl)c2C)nc1 (configuration not stated) | none | none | none
NCCc1nc(N2CCC(c3nc4cc(F)ccc4[nH]3)CC2)c2ccccc2n1 | none | none | none
Cc1cc(Nc2ccc(C)c(C)c2)n2nc(-c3cccnc3)nc2n1 | none | none | -
CCOc1ccccc1NC1=C(C(N)=O)S(=O)(=O)c2ccccc21 | none | none | -
FC(F)(F)Cn1nc(CCc2ccccc2)nc1CC1CNCCO1 (configuration not stated) | none | none | none
Cn1c(=O)[nH]c(=O)c2c1ncn2CC(O)CO (configuration not stated) | none | none | -
CCC(CO)N(Cc1ccco1)C(=O)c1ccc2cccc(Cl)c2n1 (configuration not stated) | none | none | none
CC(C)c1ccccc1NC1=NS(=O)(=O)c2ccccc21 | none | none | none
CN(C)CCCNCc1ccc2[nH]c3c(c2c1)CCCC3 | none | none | none
CN(CC1(CO)CCCC1)C(=O)Cc1ccncc1 | none | none | none
Nc1cc(OC(=O)c2ccc(F)cc2)nn1S(=O)(=O)c1ccc(Cl)cc1 | none | none | none
CCc1n[nH]c2c1C(c1cc(OC)ccc1OC)C(C#N)=C(N)O2 (configuration not stated) | none | none | none
COc1cc(-c2nccn2CCO)c(OC)cc1SC | none | none | none
O=C(Cc1cccc(Cl)c1)N1CCN(CCO)[C@@H]2CS(=O)(=O)C[C@@H]21 | none | none | none
Cc1cc(N(CCO)Cc2ccccc2)n2nc(-c3ccccc3C)nc2n1 | none | none | -
O=C(N1c2ccc(Cl)cc2C2(c3ccccc3)Nc3ccc(Cl)cc3C12c1ccccc1)C(F)(F)F (configuration not stated) | none | none | none
COc1cccc(-c2ncc(CNC3CCOC4(CCOCC4)C3)s2)c1 (configuration not stated) | none | none | none
CCCNc1ncc(CN2CC[C@@H](NC(=O)c3ccccn3)[C@H](O)C2)cn1 | none | none | none
COc1ccc2oc(C(=O)CCC(=O)O)c(N)c2c1 | none | none | none
O=C(Nc1cccc2cccnc12)N1CCCN([C@H]2COC[C@@H]2O)CC1 | none | none | none
COc1ccc2c(c1OC)C(=O)OC2Nc1ccccc1[N+](=O)[O-] (configuration not stated) | none | none | none
CC1(c2ccccc2)CC(C)(C)N(C(=O)CSc2nnc(N)s2)c2ccccc21 (configuration not stated) | none | none | none
CSc1nc(N)nc(SCC(=O)C(C)(C)C)c1C#N | none | none | none
COc1cccc(NCc2ccccc2-c2nnc(-c3ccccc3Cl)o2)c1 | none | none | none
Cc1cc(C)cc(NC(=O)c2nnn(Cc3ccc(Cl)cc3)c2N)c1 | none | none | none
NCCNC(=O)c1nc(Cn2c(C(F)(F)F)nc3ccccc32)no1 | none | none | none
COCc1cc(C)nc2sc(-c3cc(-c4ccc(OC)cc4)no3)c(N)c12 | none | none | none
O=C(NC1(c2cc(F)cc(F)c2)CC1)c1cn(CC2CCCNC2)nn1 (configuration not stated) | none | none | none
CC(C)CN1CCN(C(=O)c2ccccc2-c2ncc[nH]2)CC1CCO (configuration not stated) | none | none | none
COc1cccc([C@H]2CN(C(=O)C3CCS(=O)(=O)CC3)C[C@@H]2N)c1 | none | none | none
Cc1ccc2nc(NCc3ccc(F)cc3F)c(-c3noc(C)n3)cc2c1 | none | none | -
CCOC(=O)c1ccc2ncc(C(=O)OCC)c(N)c2c1 | none | none | none
CCc1nn2c(=O)c(N)c(C)nc2s1 | none | none | none
[Cl-].c1ccc(-c2nn(-c3ccccc3)[n+](-c3ccccc3)n2)cc1 | none | none | none
Cc1cc(C)c2[nH]c(=O)c(CN3CCC4(CCCNC4)C3)cc2c1 (configuration not stated) | none | none | none
COc1cc(OC)cc(C(=O)NC(C)CNc2ccc(Cl)cc2[N+](=O)[O-])c1 (configuration not stated) | none | none | none
CC(C)c1cc(C(=O)N[C@H]2CC[C@H]2N)on1 | none | none | none
Cc1cc(C)nc(NC(=O)c2ccc(CN(C)Cc3cnc(N)nc3)cc2)c1 | none | none | none
CC(=O)c1ccc(Br)c(N)c1 | none | none | none
CC(C)c1cc(NCc2cccnc2)n2nc(-c3cccnc3)nc2n1 | none | none | -
CS/C(=N\S(=O)(=O)c1ccccc1)NNC(=O)c1c(-c2c(Cl)cccc2Cl)noc1C | none | none | none
COc1ccc(-c2cc(-c3ccoc3)c(C#N)c(N)n2)cc1OC | none | none | none
Cc1cc(C)n2c(Nc3ccccc3)c(-c3ccccc3)nc2n1 | none | none | none
O=C(NCc1cccc(-c2ccccc2)c1)[C@H]1CNC[C@H](C(=O)N2CCCC2)C1 | none | none | none
COc1cccc(CNc2ccc3c(c2)ncn3C(C)(C)C)c1OC | none | none | none
NS(=O)(=O)c1cc(C(=O)O)c(NCc2ccco2)cc1Cl | none | none | none
O=C1OC(Nc2ccc(F)c(F)c2)c2ccccc21 (configuration not stated) | none | none | none
NC(=O)C1CCN(c2nc(NCCCO)c3ccccc3n2)CC1 | none | none | none
CN(C)c1nc(N)nc(N(C)C)n1 | none | none | none
CC(C)n1cc(C(=O)N(C)CCC(O)c2ccccc2)cn1 (configuration not stated) | none | none | none
O=S1(=O)C[C@H](NCc2ccccc2)[C@@H](S(=O)(=O)c2ccc(Cl)cc2)C1 | none | none | -
CCOC(=O)c1ccc(-n2c(N)c(C(=O)OC)c3nc4ccccc4nc32)cc1 | none | none | none
CN(Cc1cccc2cccnc12)C(=O)[C@@H]1C[C@@H](NC(=O)c2ccco2)CN1 | none | none | none
COC(=O)C1=C(N)Oc2c(c(=O)oc3ccccc23)C12C(=O)N(C)c1ccccc12 (configuration not stated) | none | none | none
COC(=O)C1=C(N)Oc2cc(C)[nH]c(=O)c2C12C(=O)Nc1ccccc12 (configuration not stated) | none | none | none